Results are given in words; binding and its absence hold for the method and conditions named. For some of these results: In cells and extracts the contact can be indirect. Some results given as binding are weak or reduced against the parent protein; the word gives no strength. For some of these results: Where a sequence is shown, tags or fusion partners need not be part of it.
T1: Pim1 (Lon protease homolog of yeast), Gal4 DNA-binding domain fusion from pGBD-C1-PIM1 (S. cerevisiae) (UniProt P36775)
T1 sequence: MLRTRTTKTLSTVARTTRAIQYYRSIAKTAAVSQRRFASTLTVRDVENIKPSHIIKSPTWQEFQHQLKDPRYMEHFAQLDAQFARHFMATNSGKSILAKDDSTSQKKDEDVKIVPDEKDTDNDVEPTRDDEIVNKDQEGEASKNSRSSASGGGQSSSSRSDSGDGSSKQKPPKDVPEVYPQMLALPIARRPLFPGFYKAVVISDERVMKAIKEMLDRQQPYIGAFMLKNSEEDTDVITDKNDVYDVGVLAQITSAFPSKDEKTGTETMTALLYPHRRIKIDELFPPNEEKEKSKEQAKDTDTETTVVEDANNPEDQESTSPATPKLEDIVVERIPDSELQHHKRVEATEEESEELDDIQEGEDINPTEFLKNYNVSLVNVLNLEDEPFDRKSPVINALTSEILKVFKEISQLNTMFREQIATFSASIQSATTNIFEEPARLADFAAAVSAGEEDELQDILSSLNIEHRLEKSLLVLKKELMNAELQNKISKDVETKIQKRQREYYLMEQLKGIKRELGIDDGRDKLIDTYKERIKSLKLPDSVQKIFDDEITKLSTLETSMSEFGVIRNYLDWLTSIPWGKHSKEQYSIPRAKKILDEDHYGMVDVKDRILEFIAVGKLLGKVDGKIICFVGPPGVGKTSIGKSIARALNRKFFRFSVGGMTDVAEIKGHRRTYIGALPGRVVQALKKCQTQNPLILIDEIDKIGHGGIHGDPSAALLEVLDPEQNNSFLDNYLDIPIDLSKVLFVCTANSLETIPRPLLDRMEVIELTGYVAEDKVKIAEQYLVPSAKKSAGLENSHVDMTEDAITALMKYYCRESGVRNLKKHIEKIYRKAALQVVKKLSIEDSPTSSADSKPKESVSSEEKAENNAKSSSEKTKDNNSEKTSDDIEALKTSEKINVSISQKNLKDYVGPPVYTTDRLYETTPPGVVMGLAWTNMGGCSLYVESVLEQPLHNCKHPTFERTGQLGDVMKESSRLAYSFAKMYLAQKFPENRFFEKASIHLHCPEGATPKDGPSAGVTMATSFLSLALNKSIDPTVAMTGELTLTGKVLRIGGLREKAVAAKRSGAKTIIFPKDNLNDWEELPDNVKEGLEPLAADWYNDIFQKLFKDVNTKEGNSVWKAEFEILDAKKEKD

T2: Pim1 (Lon protease homolog of yeast), endogenous (S. cerevisiae (endogenous in WT yeast cells)) (UniProt P36775)
T2 sequence: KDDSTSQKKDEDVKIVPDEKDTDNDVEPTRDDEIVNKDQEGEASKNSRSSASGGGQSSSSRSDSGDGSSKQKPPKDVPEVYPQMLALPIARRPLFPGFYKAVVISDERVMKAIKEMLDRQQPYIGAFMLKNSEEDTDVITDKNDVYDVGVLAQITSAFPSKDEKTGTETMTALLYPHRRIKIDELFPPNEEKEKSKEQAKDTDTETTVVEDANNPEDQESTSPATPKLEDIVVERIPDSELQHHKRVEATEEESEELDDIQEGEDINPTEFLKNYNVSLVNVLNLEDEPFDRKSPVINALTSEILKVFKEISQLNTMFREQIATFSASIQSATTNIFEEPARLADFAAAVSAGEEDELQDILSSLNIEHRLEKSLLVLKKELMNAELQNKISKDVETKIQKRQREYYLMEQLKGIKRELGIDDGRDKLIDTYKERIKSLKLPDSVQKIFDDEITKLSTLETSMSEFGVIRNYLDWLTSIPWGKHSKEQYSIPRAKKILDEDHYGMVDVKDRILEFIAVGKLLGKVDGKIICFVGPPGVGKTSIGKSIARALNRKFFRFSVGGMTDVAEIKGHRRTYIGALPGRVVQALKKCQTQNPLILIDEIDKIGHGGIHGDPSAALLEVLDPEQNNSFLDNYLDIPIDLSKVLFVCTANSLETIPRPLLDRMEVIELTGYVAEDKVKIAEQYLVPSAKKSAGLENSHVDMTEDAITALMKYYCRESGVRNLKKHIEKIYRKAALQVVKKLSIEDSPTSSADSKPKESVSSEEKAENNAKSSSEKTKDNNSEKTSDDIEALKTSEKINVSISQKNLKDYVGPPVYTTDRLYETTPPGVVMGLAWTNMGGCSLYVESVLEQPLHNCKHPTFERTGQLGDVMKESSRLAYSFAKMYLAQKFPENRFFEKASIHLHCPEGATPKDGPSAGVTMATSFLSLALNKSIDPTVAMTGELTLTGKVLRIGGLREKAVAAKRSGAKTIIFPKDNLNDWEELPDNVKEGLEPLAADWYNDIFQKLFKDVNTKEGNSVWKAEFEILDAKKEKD

B1: Pam16, Gal4 activation domain fusion from pGAD-C1-PAM16 (protein, UniProt P42949 1-149)
chain: MAHRAFIQVIITGTQVFGKAFAEAYRQAASQSVKQGATNASRRGTGKGEYGGITLDESCKILNIEESKGDLNMDKINNRFNYLFEVNDKEKGGSFYLQSKVYRAAERLKWELAQREKNAKAKAGDASTAKPPPNSTNSSGADNSASSNQ
B2: Pam18, Gal4 activation domain fusion from pGAD-C1-PAM18 (protein, UniProt Q07914 1-168)
chain: MSSQSNTGNSIEAPQLPIPGQTNGSANVTVDGAGVNVGIQNGSQGQKTGMDLYFDQALNYMGEHPVITGFGAFLTLYFTAGAYKSISKGLNGGKSTTAFLKGGFDPKMNSKEALQILNLTENTLTKKKLKEVHRKIMLANHPDKGGSPFLATKINEAKDFLEKRGISK
B3: Pam16, endogenous (protein, UniProt P42949 1-149)
chain: B1 chain
B4: Pam18, endogenous (protein, UniProt Q07914 1-168)
chain: B2 chain

Legend:
[1] = target: T1, Pim1 (Lon protease homolog of yeast), Gal4 DNA-binding domain fusion from pGBD-C1-PIM1 (S. cerevisiae); assay: two-hybrid; Gal4 system in strain PJ69-4A; Pim1 in pGBD-C1, Pam16 or Pam18 in pGAD-C1; serial dilutions spotted on minimal media, 30°C, 2 days; growth without histidine, no growth without adenine
[2] = target: T2, Pim1 (Lon protease homolog of yeast), endogenous (S. cerevisiae (endogenous in WT yeast cells)); assay: co-IP; 1 mg lysate of WT yeast cells, precleared, Pim1 antibody overnight at 4°C, Protein A/G PLUS-Agarose beads; blots with Pim1, Pam16 and Pam18 antibodies; pim1Δ cells as control

Binder	binding [1]	binding [2]
B1	binds weakly	
B2	binds weakly	
B3		binds
B4		binds

From article PMC12687454
